# US20210253520A1 (UNIVERSITAT DE BARCELONA, priority 2018, published 2021)
# One purity is given for all peptides; the source may state it once. Some peptides are written in HELM: one residue between dots, names in brackets for other building blocks, links after the first $.
# Experiment: general procedure: Fmoc solid-phase peptide synthesis; 2-Chlorotrityl chloride (CTC) resin; DIPCDI/HOBt
# Conditions: whole synthesis; for final HPLC purity: area integration of HPLC trace
Substance,crude yield [%],isolated yield [%],final HPLC purity [%]
"PEPTIDE1{[D-Adec].T.[Dab].C.[Dab].[dL].[OLe].[Dab].[Dab].[Ttr]}$PEPTIDE1,PEPTIDE1,4:R3-10:R3$$$V2.0",27,13,>99
DAdec-Thr-Dab-cyc/o(S—S)[Cys-Dab-DLeu-Leu-Dab-Dab-Ttr],62,18,>99
"PEPTIDE1{[D-Adec].T.[Dab].C.[Dab].[dF].[OLe].[Dab].[Dab].[Ttr]}$PEPTIDE1,PEPTIDE1,4:R3-10:R3$$$V2.0",40,12,>99
DAdec-Thr-Dab-cyc/o(S—S)[Cys-Dab-DPhe-Leu-Dab-Dab-Ttr],42,17,>99
"PEPTIDE1{[Oct].[Dab].T.[Dab].C.[Dab].[dF].[OLe].[Dab].[Dab].[Ttr]}$PEPTIDE1,PEPTIDE1,5:R3-11:R3$$$V2.0",34,10,>99
Octanoyl-Dab-Thr-Dab-cyc/o(S—S)[Cys-Dab-DLeu-OLe-Dab-Dab-Ttr],24,12,>99
